PubChem BioAssay AID1259424 | University of Nebraska Medical Center, 2018
Here is an unselected part of about 14,000 deposited reagents. 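Higher correlation or smaller distance means closer resemblance to KSR1 loss; control wells, including KSR1 knockdowns, recur on many plates.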 A reagent listed more than once was tested more than once; the source does not tell the runs apart. No sequences are given here. The record does not give: the time to read-out.

Screen: 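Find knockdowns that reproduce the expression shifts seen after KSR1 loss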 (primary screen)
Cells: human HCT116 colon cancer cells
Reagent: siRNA pool against human genes, 50 nM
Detection: 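Log2 levels of six mRNAs (branched-DNA multiplex), adjusted by two reference genes and the non-targeting median, then scored against the average KSR1 knockdown pattern as Pearson r and euclidean distance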
Scale: mean correlation with KSR1 profile and KSR1 correlation: higher = expression change more like KSR1 knockdown; mean distance from KSR1 profile: higher = expression change less like KSR1 knockdown

| gene | mean correlation with KSR1 profile | mean distance from KSR1 profile | KSR1 correlation, replicate 1 | KSR1 correlation, replicate 2 | KSR1 correlation, replicate 3 |
| --- | --- | --- | --- | --- | --- |
| ZNF304 (zinc finger protein 304) | -0.492 | 3.5 | -0.389 | -0.371 | -0.39 |
| VCAM1 (vascular cell adhesion molecule 1) | 0.801 | 0.725 | 0.603 | 0.924 | 0.692 |
| METTL26 (methyltransferase like 26) | 0.416 | 2.34 | 0.215 | 0.375 | 0.517 |
| TSC22D2 (TSC22 domain family member 2) | 0.511 | 1.3 | 0.544 | 0.33 | 0.611 |
| DSC3 (desmocollin 3) | -0.2 | 3.3 | -0.258 | 0.122 | -0.316 |
| TLR1 (toll like receptor 1) | -0.00807 | 3.14 | 0.154 | 0.211 | -0.383 |
| ADARB1 (adenosine deaminase RNA specific B1) | -0.371 | 2.52 | -0.366 | -0.395 | -0.491 |
| MRPL38 (mitochondrial ribosomal protein L38) | 0.834 | 0.949 | 0.532 | 0.476 | 0.759 |
| SCNM1 (sodium channel modifier 1) | 0.4 | 6.55 | 0.244 | 0.26 | 0.436 |
| DDX5 (DEAD-box helicase 5) | -0.351 | 2.91 | -0.379 | -0.428 | -0.481 |
| PLS3 (plastin 3) | -0.301 | 1.72 | -0.0187 | -0.387 | -0.329 |
| DPPA4 (developmental pluripotency associated 4) | -0.476 | 2.02 | -0.572 | -0.456 | -0.29 |
| ABHD14A (abhydrolase domain containing 14A) | -0.57 | 1.15 | 0.144 | -0.946 | -0.131 |
| CFAP91 (cilia and flagella associated protein 91) | 0.261 | 1.35 | -0.138 | 0.279 | 0.461 |
| PTCD1 (pentatricopeptide repeat domain 1) | 0.0109 | 1.31 | 0.164 | -0.169 | 0.0441 |
| BLOC1S5 (biogenesis of lysosomal organelles complex 1 subunit 5) | -0.287 | 1.19 | -0.192 | -0.611 | -0.203 |
| TDO2 (tryptophan 2,3-dioxygenase) | 0.0713 | 1.66 | 0.178 | -0.108 | 0.165 |
| SAMHD1 | -0.137 | 1.78 | -0.0473 | -0.302 | -0.0135 |
| MLKL (mixed lineage kinase domain like pseudokinase) | 0.17 | 2.32 | 0.182 | -0.146 | -0.00415 |
| BMP8B (bone morphogenetic protein 8b) | 0.314 | 2.42 | 0.372 | 0.258 | 0.42 |
| CDC37L1 (cell division cycle 37 like 1, HSP90 cochaperone) | -0.327 | 2.09 | -0.375 | -0.479 | -0.529 |
| INSM1 (INSM transcriptional repressor 1) | 0.605 | 1.54 | 0.782 | 0.622 | 0.444 |
| SEC61B (SEC61 translocon subunit beta) | -0.148 | 3.73 | -0.457 | -0.0446 | -0.106 |
| LRRC7 (leucine rich repeat containing 7) | -0.131 | 2.36 | 0.349 | 0.00745 | -0.391 |
| STRAP (serine/threonine kinase receptor associated protein) | -0.122 | 1.52 | -0.22 | -0.306 | 0.438 |
| ZNF655 (zinc finger protein 655) | -0.515 | 1.87 | -0.727 | -0.61 | -0.599 |
| PMS2P1 | 0.357 | 2.82 | 0.396 | 0.483 | 0.193 |
| ACSBG1 (acyl-CoA synthetase bubblegum family member 1) | -0.366 | 1.53 | -0.462 | 0.106 | -0.481 |
| LUZP1 (leucine zipper protein 1) | -0.485 | 2.53 | -0.427 | -0.478 | -0.481 |

7 neighbouring reagents from above:
| gene | mean correlation with KSR1 profile | mean distance from KSR1 profile | KSR1 correlation, replicate 1 | KSR1 correlation, replicate 2 | KSR1 correlation, replicate 3 |
| --- | --- | --- | --- | --- | --- |
| DSC3 (desmocollin 3) | -0.2 | 3.3 | -0.258 | 0.122 | -0.316 |
| TLR1 (toll like receptor 1) | -0.00807 | 3.14 | 0.154 | 0.211 | -0.383 |
| ADARB1 (adenosine deaminase RNA specific B1) | -0.371 | 2.52 | -0.366 | -0.395 | -0.491 |
| MRPL38 (mitochondrial ribosomal protein L38) | 0.834 | 0.949 | 0.532 | 0.476 | 0.759 |
| SCNM1 (sodium channel modifier 1) | 0.4 | 6.55 | 0.244 | 0.26 | 0.436 |
| DDX5 (DEAD-box helicase 5) | -0.351 | 2.91 | -0.379 | -0.428 | -0.481 |
| PLS3 (plastin 3) | -0.301 | 1.72 | -0.0187 | -0.387 | -0.329 |

More results follow:
| gene | mean correlation with KSR1 profile | mean distance from KSR1 profile | KSR1 correlation, replicate 1 | KSR1 correlation, replicate 2 | KSR1 correlation, replicate 3 |
| --- | --- | --- | --- | --- | --- |
| MYO5C (myosin VC) | 0.346 | 1.18 | 0.378 | 0.0756 | 0.159 |
| ARVCF (ARVCF delta catenin family member) | -0.253 | 1.48 | -0.0052 | -0.6 | -0.25 |
| FBXO9 (F-box protein 9) | -0.447 | 3.2 | -0.556 | -0.351 | -0.463 |
| LYRM1 (LYR motif containing 1) | 0.237 | 1.92 | 0.467 | 0.083 | 0.0647 |
| TREX2 (three prime repair exonuclease 2) | -0.106 | 3.08 | 0.0173 | -0.1 | -0.464 |
| RANGRF (RAN guanine nucleotide release factor) | 0.298 | 0.851 | -0.27 | 0.21 | -0.313 |
| KCNA3 (potassium voltage-gated channel subfamily A member 3) | -0.527 | 1.24 | -0.329 | -0.425 | -0.31 |
| CREM (cAMP responsive element modulator) | -0.55 | 2.52 | -0.185 | -0.169 | -0.832 |
| ARHGEF26 (Rho guanine nucleotide exchange factor 26) | -0.0821 | 1.84 | 0.129 | -0.381 | -0.131 |
| RAPH1 | -0.227 | 1.51 | -0.563 | 0.0442 | 0.129 |
| MAGEA12 (MAGE family member A12) | -0.742 | 2.1 | -0.72 | -0.673 | -0.254 |
| KRABD4 (KRAB domain containing 4) | -0.518 | 2.36 | -0.457 | -0.505 | -0.553 |
| ADGRE5 (adhesion G protein-coupled receptor E5) | 0.919 | 0.627 | 0.886 | 0.888 | 0.839 |
| PRPS1L1 (phosphoribosyl pyrophosphate synthetase 1 like 1) | 0.326 | 1.35 | 0.343 | 0.555 | -0.502 |
| BPNT1 (3'(2'), 5'-bisphosphate nucleotidase 1) | -0.0297 | 2.71 | 0.069 | -0.189 | 0.0499 |
| FOXC2 (forkhead box C2) | 0.695 | 1.74 | 0.655 | 0.76 | 0.531 |
| SLC25A28 | 0.317 | 1.51 | 0.167 | 0.192 | 0.33 |
| FAM3C (FAM3 metabolism regulating signaling molecule C) | 0.0435 | 1.72 | -0.039 | -0.00836 | 0.118 |
| POLR2K (RNA polymerase II, I and III subunit K) | -0.591 | 3.52 | -0.296 | -0.558 | -0.588 |
| NPBWR1 (neuropeptides B and W receptor 1) | 0.59 | 3.55 | 0.627 | 0.625 | 0.572 |
| PIK3CG | 0.735 | 2.1 | 0.692 | 0.79 | 0.787 |
| PIK3CG | 0.794 | 2.58 | 0.807 | 0.856 | 0.789 |
